Results from US20070253950A1.
These are yes or no findings as the source states them, for the method shown. Some entries that bind do so weakly or less than the wild type.

The chains behind the UniProt entries cited, without tags or fusion partners. Where a name states a change or a piece, a line headed by the entry shows the natural chain unless it says otherwise.
UniProt P09429: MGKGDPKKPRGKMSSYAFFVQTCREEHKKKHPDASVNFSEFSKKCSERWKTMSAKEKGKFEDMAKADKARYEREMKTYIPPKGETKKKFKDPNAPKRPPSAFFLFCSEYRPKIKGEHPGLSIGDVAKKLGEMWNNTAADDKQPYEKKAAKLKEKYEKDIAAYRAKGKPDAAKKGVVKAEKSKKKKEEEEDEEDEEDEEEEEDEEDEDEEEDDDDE
UniProt Q15109: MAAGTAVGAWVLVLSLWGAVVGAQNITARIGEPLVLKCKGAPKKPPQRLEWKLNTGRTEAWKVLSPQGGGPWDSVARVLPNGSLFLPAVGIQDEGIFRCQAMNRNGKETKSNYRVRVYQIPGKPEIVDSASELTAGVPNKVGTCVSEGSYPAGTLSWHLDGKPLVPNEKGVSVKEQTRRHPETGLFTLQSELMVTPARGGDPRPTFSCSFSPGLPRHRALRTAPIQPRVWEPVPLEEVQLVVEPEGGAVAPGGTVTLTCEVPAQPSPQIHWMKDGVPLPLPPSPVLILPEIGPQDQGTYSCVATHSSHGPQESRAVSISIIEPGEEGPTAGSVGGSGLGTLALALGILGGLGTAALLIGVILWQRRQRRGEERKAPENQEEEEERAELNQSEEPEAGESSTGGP

Biological target: HMGB1 (Homo sapiens (Human)) (UniProt P09429)
Test: ELISA: HMGB1 coated, hRAGE-Fc (0.1 ug/ml per paragraph 256) detected with anti-huIgG-HRP

- binding: binds
Substance: human RAGE-Fc fusion protein (from UniProt Q15109 23-344)
